Data published in ChEMBL document CHEMBL4325851, “Synthesis of aminopyrazole analogs and their evaluation as CDK inhibitors for cancer therapy” (Bioorg Med Chem Lett, 2018).

Test: Antiproliferative activity against human S2-013 cells after 72 hrs by prestoblue assay
Type: functional, cell-based

## CC[C@H](CO)Nc1nc(NCc2ccccc2)c2ncn(C(C)C)c2n1 [SELICICLIB]
  IC50: 21.7 µM
